These are yes or no findings as the source states them, for the method shown. In cells and extracts the contact can be indirect. Some entries that bind do so weakly or less than the wild type.
Assays:
[1] = biological target: SMARCA4 (human) (UniProt P51532); assay: co-immunoprecipitation from YB5 lysate with anti-CDK9 antibody, Western blot
[2] = biological target: SMARCA4 (human) (UniProt P51532); assay: FIG. 43A: co-immunoprecipitation from YB5 lysate with anti-CDK9 antibody, Western blot
[3] = biological target: T1, CDK9 (Homo sapiens, UniProt P50750); assay: FIG. 43B top: IP with FLAG antibody from HEK293T cells transfected with FLAG-SMARCA4, co-precipitation of CDK9 by Western blot
[4] = biological target: T1, CDK9; assay: co-immunoprecipitation from transfected HEK293T lysate with FLAG antibody, Western blot for CDK9
[5] = biological target: SMARCA4 (human) (UniProt P51532); assay: FIG. 43B bottom: IP with SMARCA4 antibody from HEK293T cells transfected with GFP-CDK9, co-precipitation of GFP-CDK9 by Western blot
[6] = biological target: SMARCA4 (human) (UniProt P51532); assay: co-immunoprecipitation from transfected HEK293T lysate, Western blot

Chains of the proteins cited; added tags and fusions are not shown.
UniProt P51532: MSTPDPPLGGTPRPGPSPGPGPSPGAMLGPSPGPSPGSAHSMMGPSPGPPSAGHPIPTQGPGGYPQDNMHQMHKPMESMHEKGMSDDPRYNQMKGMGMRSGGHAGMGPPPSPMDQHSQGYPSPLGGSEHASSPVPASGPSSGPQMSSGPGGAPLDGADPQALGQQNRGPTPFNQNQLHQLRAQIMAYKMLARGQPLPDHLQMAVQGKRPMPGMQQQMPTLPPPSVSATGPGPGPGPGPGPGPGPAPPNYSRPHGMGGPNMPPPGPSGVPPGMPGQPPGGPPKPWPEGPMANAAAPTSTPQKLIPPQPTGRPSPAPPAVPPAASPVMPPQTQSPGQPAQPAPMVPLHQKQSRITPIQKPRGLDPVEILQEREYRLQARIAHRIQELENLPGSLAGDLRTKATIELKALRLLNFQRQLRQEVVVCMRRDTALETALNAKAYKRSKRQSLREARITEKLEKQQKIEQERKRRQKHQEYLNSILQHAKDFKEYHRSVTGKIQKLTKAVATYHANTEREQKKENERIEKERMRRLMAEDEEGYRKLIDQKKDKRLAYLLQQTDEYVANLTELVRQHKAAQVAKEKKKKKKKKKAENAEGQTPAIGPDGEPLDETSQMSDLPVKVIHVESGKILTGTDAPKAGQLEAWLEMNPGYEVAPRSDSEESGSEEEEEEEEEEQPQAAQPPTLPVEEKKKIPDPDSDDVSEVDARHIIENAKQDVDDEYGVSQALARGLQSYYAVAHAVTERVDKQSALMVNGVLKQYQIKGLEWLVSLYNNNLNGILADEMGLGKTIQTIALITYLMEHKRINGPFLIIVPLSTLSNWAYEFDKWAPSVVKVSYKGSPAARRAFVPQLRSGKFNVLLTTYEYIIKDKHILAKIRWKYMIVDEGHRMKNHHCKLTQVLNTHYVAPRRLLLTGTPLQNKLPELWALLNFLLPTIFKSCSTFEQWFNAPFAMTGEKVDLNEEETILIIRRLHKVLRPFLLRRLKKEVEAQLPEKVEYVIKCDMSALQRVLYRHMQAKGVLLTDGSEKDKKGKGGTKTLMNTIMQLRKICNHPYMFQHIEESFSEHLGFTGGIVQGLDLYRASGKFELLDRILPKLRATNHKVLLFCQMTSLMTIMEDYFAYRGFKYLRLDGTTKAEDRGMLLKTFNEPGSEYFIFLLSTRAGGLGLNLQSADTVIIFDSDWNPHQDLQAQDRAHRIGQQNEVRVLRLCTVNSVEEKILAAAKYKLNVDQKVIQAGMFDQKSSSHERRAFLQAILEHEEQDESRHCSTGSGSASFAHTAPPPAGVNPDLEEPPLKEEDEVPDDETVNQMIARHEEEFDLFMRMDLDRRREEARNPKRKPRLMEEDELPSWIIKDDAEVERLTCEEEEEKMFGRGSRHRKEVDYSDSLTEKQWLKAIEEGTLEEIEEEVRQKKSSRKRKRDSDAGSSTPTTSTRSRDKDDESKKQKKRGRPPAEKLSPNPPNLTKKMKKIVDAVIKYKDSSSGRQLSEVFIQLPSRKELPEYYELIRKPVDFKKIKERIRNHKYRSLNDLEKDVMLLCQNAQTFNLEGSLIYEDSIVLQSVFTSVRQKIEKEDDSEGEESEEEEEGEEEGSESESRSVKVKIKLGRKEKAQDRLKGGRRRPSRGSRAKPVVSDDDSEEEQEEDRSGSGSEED
UniProt P50750: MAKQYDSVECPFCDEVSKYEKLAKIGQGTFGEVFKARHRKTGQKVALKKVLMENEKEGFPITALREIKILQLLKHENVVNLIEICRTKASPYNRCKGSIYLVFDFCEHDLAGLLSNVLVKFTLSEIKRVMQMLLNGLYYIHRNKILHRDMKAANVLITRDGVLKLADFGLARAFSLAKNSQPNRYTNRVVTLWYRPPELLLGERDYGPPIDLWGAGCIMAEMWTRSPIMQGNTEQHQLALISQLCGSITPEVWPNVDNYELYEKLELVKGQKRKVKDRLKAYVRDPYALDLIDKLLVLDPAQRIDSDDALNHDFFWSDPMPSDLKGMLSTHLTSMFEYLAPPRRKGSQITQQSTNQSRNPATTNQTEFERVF

CDK9 (from UniProt P50750 1-372) (enzyme)
binding [1]: binds | binding [2]: binds

FLAG-SMARCA4 (from UniProt P51532 1-1647)
binding [3]: binds | binding [4]: binds

GFP-CDK9 (from UniProt P50750 1-372)
binding [5]: binds | binding [6]: binds

Source: patent publication US10941126B2, “Bridged bicycloalkyl-substituted aminothiazoles and their methods of use” (Temple University—Of The Commonwealth System of Higher …, priority 2017, dated 2021)
